PubChem BioAssay AID1159584 | Peter MacCallum Cancer Centre | 2016

- Screen: 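Genes whose loss is lethal only together with E-cadherin loss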 (primary screen)
- Cells: human MCF10A breast epithelial cells, parental and CDH1-null
- Reagents: siRNA against human genes
- Measurement: 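Cell viability by CellTiter-Glo ATP luminescence, each line scaled to the mean of mock wells across plates, then CDH1-null over parental ratio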
- Reading the numbers: CDH1-null / parental viability ratio: higher = CDH1-null cells survive relatively better than parental; CDH1-null viability vs mock: higher = more viable CDH1-null cells; parental viability vs mock: higher = more viable parental cells
Shown is an unselected part of about 18,000 deposited reagents. The record does not give: the amount of reagent, the time to read-out.

gene knocked down	CDH1-null / parental viability ratio	CDH1-null viability vs mock (fraction of mock)	parental viability vs mock (fraction of mock)
MTM1	1.95	0.82	0.42
CLRN3	0.87	0.97	1.12
CYP4F22	0.88	1.05	1.2
RBMY1D	1.06	1.21	1.14
TAF7L	0.87	0.55	0.63
ERICH6	0.81	0.7	0.86
MAPRE2	1.11	0.63	0.57
SRMS	0.94	0.67	0.71
ARFGAP1	1.11	0.92	0.83
PVALB	1.29	0.36	0.28
LYPD5	0.95	0.78	0.82
OR2T1	0.69	0.61	0.88
UGGT1	0.88	0.64	0.73
TSKU	1.05	1.23	1.17
TMEM140	0.66	0.65	0.98
SSB	0.83	0.48	0.58
RAD54L2	0.88	0.52	0.59
NCKAP1L	0.89	0.78	0.88
MZT2A	0.86	0.8	0.93
DHX29	0.86	0.6	0.7
TAMALIN	1.12	1.05	0.94
NUDT17	1.57	1.26	0.8
GRIK3	1.24	1.04	0.84
GOLGA7	0.96	0.98	1.02
C1QTNF8	1.36	0.76	0.56
RNPEPL1	1.24	0.42	0.34
CSNK1D	1.1	1.02	0.93
CARD8	0.93	0.84	0.9
KIF3C	1.07	1.02	0.95
LRRC71	1.19	0.74	0.62
TAC1	1.03	0.78	0.76
TNNI3K	0.71	0.7	0.98
TRIM42	1.02	0.96	0.94
ALDH16A1	1.23	0.79	0.64
SDHA	1.03	0.81	0.79
INPP4B	1.13	0.76	0.67
TDP1	1.24	1.02	0.82
MBNL3	1.51	0.83	0.55
PSG1	1.08	1.04	0.96
TCL1A	1.02	0.59	0.58
TAAR2	1.4	0.95	0.68
RSPH3	1.01	0.72	0.71
GZMH	1.3	0.91	0.7
SETD2	0.85	0.58	0.68
ZNF449	0.99	0.98	0.99
PDE6G	0.95	0.78	0.82

Part of the list above in another layout.
gene knocked down | CDH1-null / parental viability ratio | CDH1-null viability vs mock (fraction of mock) | parental viability vs mock (fraction of mock)
KIF3C | 1.07 | 1.02 | 0.95
LRRC71 | 1.19 | 0.74 | 0.62
TAC1 | 1.03 | 0.78 | 0.76
